Assay results: patent US20060159639A1, “Pseudo body odor composition and perfume composition for inhibiting body odor” (priority 2003, published 2006)
For at least one compound, name, drawing or mass did not settle the structure.

Assay: Suppression test of Experimental Example 1: masking and harmonizing effect in a cup, four expert panelists;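 as to harmonizing: score 1 means in harmony 0 indefinite and −1 not in harmony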
Settings: 200 μl pseudo body odor composition of Example 4 and 10 μl perfume on filter papers in sealed about 500 ml cup, after 30 minutes
Procedure: In the present invention, the selection of the above component (I), component (II) and component (III) was carried out as follows. That is, one of the pseudo body odor compositions mentioned above and a target fragrance component were mixed and left at room temperature for 30 minutes. Thereafter, evaluations of the masking and harmonizing effects to the acid odor were carried out by four expert panelists.
After 30 minutes, a hole of about 1 cm in diameter was formed in the aluminum foil and the investigations of masking effect and the harmonizing effect were carried out according to following evaluation criteria by four expert panelists.
3: Excellent in the masking.
2: Substantially excellent in the masking.
1: Slightly sensible of the body odor (sweat odor and armpit odor).
0: Sensible of the body odor (sweat odor and armpit odor) (insufficient in the masking)

What does the source list for `CC(=O)c1cc2c(cc1C)C(C)(C)C(C)CC2(C)C` (centres unmarked) [Tonalid, 6-acetyl-1,1,2,4,4,7-hexamethyl tetrahydro naphthalene]?
Masking (scale 0-3): 1.5 points; Harmonizing (scale −1 to 1): 0
